From US9255100B2 (BAYER INTELLECTUAL PROPERTY GMBH, priority 2010, dated 2016)
The structures given here were assigned with low confidence; some may be wrong.

Chains of the proteins cited; added tags and fusions are not shown.
UniProt P33981, whole entry: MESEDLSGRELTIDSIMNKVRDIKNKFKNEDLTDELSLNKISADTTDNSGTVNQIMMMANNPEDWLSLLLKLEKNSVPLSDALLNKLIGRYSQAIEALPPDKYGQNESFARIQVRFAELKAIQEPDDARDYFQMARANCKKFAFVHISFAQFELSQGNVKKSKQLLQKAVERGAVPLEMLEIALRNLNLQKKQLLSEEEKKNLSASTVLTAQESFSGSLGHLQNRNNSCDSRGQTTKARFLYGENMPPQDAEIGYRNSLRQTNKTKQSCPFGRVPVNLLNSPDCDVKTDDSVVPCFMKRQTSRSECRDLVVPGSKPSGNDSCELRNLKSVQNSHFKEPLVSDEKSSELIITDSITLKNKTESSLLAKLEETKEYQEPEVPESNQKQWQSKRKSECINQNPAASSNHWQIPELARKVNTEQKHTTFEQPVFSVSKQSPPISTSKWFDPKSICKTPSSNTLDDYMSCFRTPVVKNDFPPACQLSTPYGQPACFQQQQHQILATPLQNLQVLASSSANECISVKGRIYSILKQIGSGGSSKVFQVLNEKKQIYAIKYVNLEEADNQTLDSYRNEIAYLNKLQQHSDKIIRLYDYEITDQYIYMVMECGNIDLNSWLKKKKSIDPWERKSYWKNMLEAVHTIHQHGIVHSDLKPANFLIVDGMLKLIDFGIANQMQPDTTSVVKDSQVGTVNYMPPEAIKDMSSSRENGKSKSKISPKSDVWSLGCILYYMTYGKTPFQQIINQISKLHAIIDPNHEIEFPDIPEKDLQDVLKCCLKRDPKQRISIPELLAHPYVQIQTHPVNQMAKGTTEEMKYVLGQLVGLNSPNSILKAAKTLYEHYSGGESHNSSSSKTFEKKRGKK

Biological target: N-terminally GST-tagged human full length recombinant Mps-1 kinase (Homo sapiens, UniProt P33981)
Test: Mps-1 kinase assay (TR-FRET)
Format: biochemical
Settings: read-out: Mps1 IC50, 10 μM ATP, 1 μM peptide substrate, 60 min at 22° C.

`COc1ccc(Oc2cc(NCCC(F)(F)F)c3ncc(-c4ccc(C(=O)NC5CC5)c(C)c4)n3n2)c(F)c1` gave an IC50 of 0.4 nM.
